No constants are given. Whether binding was seen depends on the method and setting. Binding seen in cells or lysates may run through a third protein. These calls come from enrichment with a bait or labelling near it, and not all partners need be listed.
Biological target: FLAG-Tev-6×His (FTH)-tagged Dm65K (Drosophila)
Experiment: affinity purification with mass spectrometry; two-step purification of FTH-Dm65K from nuclear extract of Day 3 pupae: ANTI-FLAG M2 affinity gel, elution with 3x FLAG peptide, then Ni-NTA beads; WB150 buffer (20 mM Tris-HCl pH 7.4, 150 mM NaCl, 0.1% CA-630); WT pupae as control

Binder	binding
SmG (protein, UniProt Q9VXE0 1-76) MSKAHPPEVKKYMDKRMMLKLNGGRAVTGILRGFDPFMNVVLDDTVEECKDNTKNNIGMVVIRGNSIVMVEALDRV	binds
SmE (protein, UniProt Q9VLV5 1-94) MSFKGNPKVQKVMVQPINLIFRYLQNRSRVQVWLYENISLRIEGHIVGFDEYMNLVLDDAEEVYVKTRQRRNLGRIMLKGDNITLIQNVSPTKD	binds

From article PMC11304329
